# Experimental data: PMC12431657, “Discovery and mechanistic insights of dibenzoylmethane as a broad spectrum inhibitor of coronavirus” (PLOS Pathogens, 2025)
# Structures can show the parent of a compound that is named as a salt. Where two headings read alike, the source gives them in different places. In all, about 3,300 compounds went through this assay and about 95 (3%) showed an effect of 50% or more. The list shows a part of the results. Bridge positions count the residues as written; N and C are the ends. Square brackets hold non-standard residues; d marks the D form. Peptide text beside a SMILES is read from it. * marks the point of attachment. NMePhe(4-NMe2) = CN[C@@H](Cc1ccc(N(C)C)cc1)C(=O)O; Pip(4-oxo) = O=C1CCN[C@H](C(=O)O)C1; Picolinoyl(3-OH) = O=C(c1ncccc1O)*; Phg = N[C@H](C(=O)O)c1ccccc1; dAbu = CC[C@@H](N)C(=O)O
# Test system: HCoV-229E
# Set-up: species or system Huh-7; HTS, protection from HCoV-229E induced cell death, luminescent cell viability (CellCounting-Lite 2.0), inhibition rate
# Details: 24 h post infection, 1 h compound pre-incubation, 10 µM, inhibitor
SMILES,229E Inhibition rate,"229E Inhibition rate (229E Inhibition rate, 24 h)"
CC(=O)N[C@@H](CCCCN)C(=O)O [Acetyl-L-lysine],15.8%,–
CC(C)=CCc1c(O)cc(O)c2c(=O)c(O[C@@H]3O[C@@H](C)[C@H](O)[C@@H](O)[C@H]3O)c(-c3ccc(O)cc3)oc12 [IKarisoside A],0%,–
COc1ccc2ccc(=O)oc2c1CC=C(C)C [Osthole],4.6%,–
CC(C)=CCC[C@](C)(O[C@@H]1O[C@H](CO)[C@@H](O)[C@H](O)[C@H]1O)[C@H]1CC[C@]2(C)[C@@H]1[C@H](O)C[C@@H]1[C@@]3(C)CC[C@H](O)C(C)(C)[C@@H]3[C@@H](O[C@@H]3O[C@H](CO)[C@@H](O)[C@H](O)[C@H]3O[C@@H]3O[C@@H](C)[C@H](O)[C@@H](O)[C@H]3O)C[C@]12C [Ginsenoside Re],9.3%,–
CC1=C(/C=C/C(C)=C/C=C/C(C)=C/C(=O)O)C(C)(C)CCC1 [Retinoic acid],34.7%,–
O=C(/C=C/c1ccc(O)c(O)c1)O[C@@H]1C[C@@](OC(=O)/C=C/c2ccc(O)c(O)c2)(C(=O)O)C[C@@H](O)[C@@H]1O [Cynarin],18.7%,–
O=C(/C=C/c1ccc(O)cc1)c1ccccc1 [4-Hydroxychalcone],–,12%
COc1cc2c(cc1OC)-c1cc3ccc(OC)c(O)c3c[n+]1CC2 [Palmaturbine (hydroxide)],–,9.8%
CC(C)=CC[C@@H](O)C1=CC(=O)c2c(O)ccc(O)c2C1=O [Shikonin],2%,–
"O=C(O)c1ccc(O)c(O)c1O [2,3,4-Trihydroxybenzoic acid]",18%,–
C[C@@H]1CC[C@@]2(NC1)O[C@H]1C[C@H]3[C@@H]4CC=C5C[C@@H](O[C@@H]6O[C@H](CO)[C@H](O)[C@H](O[C@@H]7O[C@H](CO)[C@@H](O)[C@H](O)[C@H]7O)[C@H]6O[C@@H]6O[C@@H](C)[C@H](O)[C@@H](O)[C@H]6O)CC[C@]5(C)[C@H]4CC[C@]3(C)[C@H]1[C@@H]2C [Solasonine],8.1%,–
O=c1oc2cc(O)ccc2c2ccc(O)cc12 [Urolithin A],8.6%,–
CC[C@H](CC[C@@H](C)[C@H]1CC[C@H]2[C@@H]3CC=C4C[C@@H](O)CC[C@]4(C)[C@H]3CC[C@]12C)C(C)C [Beta-Sitosterol (purity>80%)],–,9.6%
COc1cc2oc(-c3ccc(O)c(O)c3)c(OC)c(=O)c2c(O)c1OC [Chrysosplenol D],29.6%,–
C=C1C(=O)O[C@H]2C[C@H](C)C(/C=C/C(C)=O)=CC[C@H]12 [Xanthatin],11.2%,–
CC(=O)O[C@@H]1[C@@H](OC(C)=O)[C@@H](O)[C@H](Oc2c(-c3ccc(O)cc3)oc3cc(O)cc(O)c3c2=O)O[C@H]1C [SL 0101-1],31.7%,–
C[C@H]1O[C@@H](O[C@H]2CC[C@@]3(C)[C@@H](CC[C@]4(C)[C@@H]3C=CC3=C5CC(C)(C)CC[C@]5(CO)[C@H](O)C[C@]34C)[C@]2(C)CO)[C@H](O)[C@@H](O)[C@H]1O [Prosaikogenin D],5.5%,–
C[C@@H]1O[C@@H](c2c(O)c([C@@H]3O[C@H](CO)[C@@H](O)[C@H](O)[C@H]3O)c(O)c3c(=O)cc(-c4ccc(O)cc4)oc23)[C@H](O)[C@H](O)[C@H]1O [Violanthin],46.3%,–
C[C@H](O)[C@H](O)[C@@H](O)[C@@H](O)C=O [Rhamnose (monohydrate)],9.5%,–
Oc1nc(O)c2cn[nH]c2n1 [Oxypurinol],38%,–
CCn1cnc2c(N)ncnc21 [9-Ethyladenine],16.7%,–
C=C(C)[C@@H]1CC=C(/C=N/O)CC1 [Perillartine],15.2%,–
CC[C@H]1NC(=O)[C@@H](NC(=O)c2ncccc2O)[C@@H](C)OC(=O)[C@H](c2ccccc2)NC(=O)[C@@H]2CC(=O)CCN2C(=O)[C@H](Cc2ccc(N(C)C)cc2)N(C)C(=O)[C@@H]2CCCN2C1=O [Pristinamycin IA] ({Picolinoyl(3-OH)}-T[dAbu]P[NMePhe(4-NMe2)][Pip(4-oxo)][Phg]; ester 1-C),24.5%,–
COC(=O)c1ccccc1C(=O)OC [Dimethyl phthalate],5.7%,–
C[C@H](CC[C@@H](O[C@@H]1O[C@H](CO[C@@H]2O[C@H](CO)[C@@H](O)[C@H](O)[C@H]2O)[C@@H](O)[C@H](O)[C@H]1O)C(C)(C)O)[C@H]1CC[C@@]2(C)[C@@H]3CC=C4[C@@H](CC[C@H](O[C@@H]5O[C@H](CO[C@@H]6O[C@H](CO)[C@@H](O)[C@H](O)[C@H]6O)[C@@H](O)[C@H](O)[C@H]5O)C4(C)C)[C@]3(C)[C@H](O)C[C@]12C [Mogroside IV-A],32.3%,–
CC(C)CCC1(O)O[C@H]2[C@H](O)[C@H]3[C@@H]4CC[C@@H]5C[C@@H](O[C@@H]6O[C@H](CO)[C@H](O)[C@H](O)[C@H]6O[C@@H]6O[C@H](CO)[C@@H](O)[C@H](O)[C@H]6O)CC[C@]5(C)[C@H]4CC[C@]3(C)[C@H]2[C@@H]1C (stereo partly drawn) [Anemarrhenasaponin I],7.3%,–
C=CC(C)(CCC=C(C)C)OC(C)=O (stereo not drawn) [Linalyl acetate],7.5%,–

# Two records picked at random from the list so far:
SMILES,229E Inhibition rate,"229E Inhibition rate (229E Inhibition rate, 24 h)"
Oc1nc(O)c2cn[nH]c2n1 [Oxypurinol],38%,–
C[C@@H]1O[C@@H](c2c(O)c([C@@H]3O[C@H](CO)[C@@H](O)[C@H](O)[C@H]3O)c(O)c3c(=O)cc(-c4ccc(O)cc4)oc23)[C@H](O)[C@H](O)[C@H]1O [Violanthin],46.3%,–

# Further entries follow.

SMILES,229E Inhibition rate,"229E Inhibition rate (229E Inhibition rate, 24 h)"
CC[C@H](C)C(=O)O[C@H]1C[C@@H](C)C=C2C=C[C@H](C)[C@H](CC[C@@H]3C[C@@H](O)CC(=O)O3)[C@H]21 [Lovastatin],23.8%,–
CCO[C@H]1O[C@@H]2O[C@@]3(C)CC[C@H]4[C@H](C)CC[C@@H]([C@H]1C)[C@@]24OO3 [Artemotil],24.5%,–
O=c1c(O[C@@H]2OC[C@H](O)[C@H](O)[C@H]2O)c(-c2ccc(O)c(O)c2)oc2cc(O)cc(O)c12 [Guaijaverin],20.3%,–
COc1ccc2c3c1O[C@H]1C[C@@H](O)C=C[C@@]31CCN(C)C2 [Galanthamine (hydrobromide)],–,13.6%
CC(C)C[C@H](N)C(=O)N[C@@H](C)C(=O)O [L-Leucyl-L-alanine] (H-Leu-Ala-OH),8.7%,–
"OC[C@H]1OC[C@H](O)[C@@H](O)[C@@H]1O [1,5-Anhydrosorbitol]",12.9%,–
O=C1CCC[C@@H]2[C@H]3CCC[N+]4([O-])CCC[C@@H](CN12)[C@@H]34 (stereo partly drawn) [Oxymatrine],13.1%,–
COc1ccc(C)cc1 [4-Methylanisole],10.3%,–
C=C[C@@H]1C2=CCOC(=O)C2=CO[C@H]1O[C@@H]1O[C@H](CO[C@@H]2O[C@H](CO)[C@@H](O)[C@H](O)[C@H]2O)[C@@H](O)[C@H](O)[C@H]1O [6'-O-beta-D-Glucosylgentiopicroside],5.9%,–
CC(=O)N[C@@H](CS)C(=O)O [Acetylcysteine],39.5%,–
C[C@@H]1O[C@@H](O[C@H]2[C@H](OC(=O)[C@]34CCC(C)(C)C[C@H]3C3=CC[C@@H]5[C@@]6(C)C[C@H](O)[C@H](O[C@@H]7O[C@H](CO)[C@@H](O)[C@H](O)[C@H]7O)[C@@](C)(CO)[C@@H]6CC[C@@]5(C)[C@]3(C)C[C@H]4O)OC[C@H](O)[C@@H]2O)[C@H](O)[C@H](O)[C@H]1O[C@@H]1OC[C@@H](O)[C@H](O[C@@H]2OC[C@](O)(CO)[C@H]2O)[C@H]1O [Polygalacin D],16.7%,–
COc1cc2oc(-c3ccccc3)cc(=O)c2c(O)c1OC [Mosloflavone],24%,–
Cc1ccccc1C(=O)O [o-Toluic acid],0%,–
CCCC(=O)OC(CC(=O)[O-])C[N+](C)(C)C (stereo not drawn) [Butyrylcarnitine],14%,–
C[C@H]1CC[C@]2(C(=O)O)CC[C@]3(C)C(=CC[C@@H]4[C@@]5(C)CC[C@H](O[C@@H]6OC[C@@H](O)[C@H](O)[C@H]6O[C@@H]6O[C@H](CO)[C@@H](O)[C@H](O)[C@H]6O)C(C)(C)[C@@H]5CC[C@]43C)[C@@H]2[C@]1(C)O [Ilexoside D],9.2%,–
C=C1C[C@]2(O)O[C@@]3(CC2=C(C)C)[C@@H](C)CC[C@@H]13 [Isocurcumenol],10.7%,–
O=c1cc(-c2ccccc2)oc2cc(O)c(O)c(O)c12 [Baicalein],34.3%,–
COc1cc(C2Oc3cc([C@H]4Oc5cc(O)cc(O)c5C(=O)[C@@H]4O)ccc3OC2CO)ccc1O (stereo partly drawn) [Silybin],13%,–
"OCCCO [1,3-Propanediol]",49%,–
CCCCCCCCCCCCCCOC(C)=O [Tetradecyl acetate],20.4%,–
N[C@H](CCSSCC[C@@H](N)C(=O)O)C(=O)O (racemic) [DL-Homocystine],13%,–
NC1CCSC1=O (racemic) [DL-Homocysteine thiolactone (hydrochloride)],5.6%,–
CC(C)=CCOc1c2occc2cc2ccc(=O)oc12 [Imperatorin],7.2%,–
CC(C)C(O)C(=O)O (stereo not drawn) [2-Hydroxy-3-methylbutanoic acid],20.4%,–
COc1cc(C[C@@H](CO[C@@H]2O[C@H](CO)[C@@H](O)[C@H](O)[C@H]2O)[C@H](CO[C@@H]2O[C@H](CO)[C@@H](O)[C@H](O)[C@H]2O)Cc2ccc(O)c(OC)c2)ccc1O [Secoisolariciresinol diglucoside],–,8.8%
C/C=C(\C)C(=O)O [Tiglic acid],12.8%,–
O=C(OC[C@H]1O[C@@H](Oc2c(-c3ccc(O)c(O)c3)oc3cc(O)cc(O)c3c2=O)[C@H](O)[C@@H](O)[C@H]1O)c1cc(O)c(O)c(O)c1 [Quercetin 3-O-(6''-galloyl)-β-D-galactopyranoside],14.1%,–
